Data on 28 compounds can be found in the supplement of paper PMC12823440, “Inhibitors supercharge kinase turnover through native proteolytic circuits” (Nature, 2025).

SMILES strings stand for the structures. Where a name gives a salt, the structure may show the parent alone. Some of the results follow. The calls rarely recur for the same compound in another form.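 Kinases were expressed as nanoluciferase fusions in K562 cells and luminescence was read every 4 h between 2 and 18 h as percent of control, DMSO set to 100% and a positive control to 0%. A time point counts as decreased when the signal drops significantly (2 sigma). The hit call is the authors' own, does not follow from the count of time points alone, and its rule is not shown.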

The assay has as its target EGFR_G719S (UniProt P00533). Description: number of time points (of 5) at which kinase-Nluc abundance scored as decreased, DMSO-normalised (count); higher = more persistent destabilization. To be noted: K562; 2-18 h.
As for `COCCOc1ccc(-c2cn(-c3ccccc3)c3nc[nH]c(=O)c23)cc1` (10 µM), the “number of time points” value was found to be 0.

As for `CC(C)CC1(O)CCN(C(=O)c2ccc(NS(=O)(=O)c3cccc4nccnc34)cc2)CC1` (10 µM), the “number of time points” value worked out at 0.

On to `Cc1cc(Nc2cc(Cl)nc(Oc3ccc([N+](=O)[O-])cc3)n2)n[nH]1` [Autophinib] (2.5 µM), for which the “number of time points” value is 2.

In the case of `O=C(NCCO)c1ccc2c(c1)nc(Nc1cccc(Cl)c1)c1ccncc12` [CK2 inhibitor 2] (10 µM), the “number of time points” value is 0.

Take `COc1ccc(C2CC(c3ccccc3)=NN2c2ccc(S(N)(=O)=O)cc2)cc1` (stereo not drawn) (10 µM): the “number of time points” value was found to be 0.

As for `C[C@@H]1O[C@@H](O[C@H]2[C@H](Oc3cc(O)c4c(=O)cc(-c5ccc(O)cc5)oc4c3)O[C@H](CO)[C@@H](O)[C@@H]2O)[C@H](O)[C@H](O)[C@H]1O` [Rhoifolin] (10 µM), the “number of time points” value was 0.

Take `O=[N+]([O-])c1cc(C(F)(F)F)cc([N+](=O)[O-])c1NNC(=S)Nc1ccc(F)cc1` (10 µM): the “number of time points” value worked out at 0.

Consider `CCc1cc(O)c(F)cc1-c1ccc2c(-c3nc4c([nH]3)CN(C3CCN(C)CC3)CC4)n[nH]c2c1` [JAK-IN-5 (hydrochloride)] (2 µM), for which the “number of time points” value is 1.

As to `O=C(Nc1cccnc1)c1cc(C(=O)c2c(F)cccc2Br)c[nH]1` (10 µM), the “number of time points” value was determined as 0.

In the case of `COc1ccc2c(c1O)OC(C)(C)c1c-2ccc2c1C(=O)N(c1ccc(C(=O)c3ccccc3)cc1)C2=O` [Ampkinone] (10 µM), the “number of time points” value is 0.

For the compound `CC1CCc2nc(N)c(C#N)c(-c3cccnc3)c2C1` (stereo not drawn) (10 µM), the “number of time points” value stood at 0.

Consider `COc1cc(F)c(F)c(Nc2ccc(I)cc2F)c1NS(=O)(=O)C1(C[C@H](O)CO)CC1` [Refametinib] (10 µM), for which the “number of time points” value was 0.

As for `Cn1nccc1Nc1nccc(-c2cc3c(s2)C(C)(C)N(CCN2CCOCC2)C3=O)n1` (10 µM), the “number of time points” value was 0.

Consider `Cc1ccc(-c2c(C(=O)CCl)n(CCCO)c3ncnc(N)c23)cc1` (10 µM), for which the “number of time points” value came out at 3.

Regarding `N[C@H](Cc1c[nH]c2ccccc12)C(=O)N/N=C/c1ccc2nccnc2c1` [Rhosin (hydrochloride)] (10 µM), the “number of time points” value came to 0.

Turning to `CNCc1ccccc1-c1csc([C@@H](C)Nc2nc(C)nc3cc(OC)c(OC)cc23)c1` (2.5 µM), the “number of time points” value was 0.

`Cn1cnc(-c2cc3nccc(Oc4ccc(NC(=S)NC(=O)Cc5ccccc5)cc4F)c3s2)c1` [MGCD-265 analog] (10 µM): the “number of time points” value was found to be 0.

Consider `C=C1C(=O)O[C@@H]2C[C@@]3(C)CCC[C@H](C)C3=C[C@H]12` [Alantolactone] (10 µM), for which the “number of time points” value amounted to 0.

Consider `O=C(Nc1ccc(F)cc1F)[C@H](NC(=S)Nc1cc(C(F)(F)F)cc(C(F)(F)F)c1)c1ccccc1` (2.5 µM), for which the “number of time points” value was 0.

Regarding `Fc1ccc(-c2nc(-c3ccccc3F)[nH]c2-c2ccncc2)cc1` (2.5 µM), the “number of time points” value came out at 0.

As to `Cc1ccc(Oc2nc3cc(-c4ccc5c(ccn5C)c4)c(Cl)cc3[nH]2)cc1C(=O)O` (10 µM), the “number of time points” value is 0.

Consider `COc1ccc([C@H]2c3[nH]c4ccc(Cl)cc4c3CCN2C(=O)Oc2ccc(Cl)cc2)cc1` (2.5 µM), for which the “number of time points” value turned out to be 2.

Regarding `COc1ncc(-c2nc(N3CCOCC3)nc3c(CN4CCC(C(C)(C)O)CC4)cc(F)cc23)cc1NS(C)(=O)=O` [Linperlisib] (10 µM), the “number of time points” value was determined as 0.

With `C[C@@H](c1ccc2nccn2c1)n1nnc2ncc(-c3cnn(C)c3)nc21` [Savolitinib] (10 µM), the “number of time points” value amounted to 0.

For `CCn1c(-c2nonc2N)nc2cnc(Oc3cccc(NC(=O)c4ccc(OCCN5CCOCC5)cc4)c3)cc21` (10 µM), the “number of time points” value was determined as 3.

For the compound `COc1ccc(C(=O)Nc2sc3c(c2C(N)=O)CCCC3)cc1OC` (10 µM), the “number of time points” value amounted to 0.

In the case of `COc1ccc(CC(=O)Nc2nc3c(s2)CCc2ccccc2-3)cc1OC` (10 µM), the “number of time points” value is 0.

As for `O=C1Nc2nc(-c3c(O)cccc3OCC3CC3)cc([C@@H]3CCCNC3)c2CO1` [Bay 65-1942 (hydrochloride)] (10 µM), the “number of time points” value was determined as 1.
